Laboratory results published in patent US8513286B2, “Iminipyridine derivatives and their uses as microbiocides” (Syngenta Crop Protection LLC, priority 2007, dated 2013).
Some of these results come from one statement about several compounds together.

Test system: Phaeosphaeria nodorum (syn. Septoria nodorum, Leptosphaeria nodorum)
Test: Phaeosphaeria nodorum, Septoria leaf spot of wheat, preventative test on wheat leaf segments
Assay type: in vivo
Details: application rate 200 ppm, assessed 4 days after inoculation, 0=no control, 100%=complete control

## C#CC(C)N(C)/C=N/c1ccc(Oc2ccc(Cl)cc2Cl)nc1 (centres unmarked) [P.04]
  preventive fungicidal activity, percent efficacy relative to untreated infected control: at least 50%

## CCN(C)/C=N/c1cc(Br)c(Oc2ccc(Cl)c(C(F)(F)F)c2)nc1C [P.29]
  preventive fungicidal activity, percent efficacy relative to untreated infected control: at least 50%
